The source of these data is paper PMC4685450, “Crystal Structure of Human SSRP1 Middle Domain Reveals a Role in DNA Binding”.

Amino acid sequences for entries named in this document (tags omitted). Residues count along the entry.
UniProt Q08945, residues 196-430: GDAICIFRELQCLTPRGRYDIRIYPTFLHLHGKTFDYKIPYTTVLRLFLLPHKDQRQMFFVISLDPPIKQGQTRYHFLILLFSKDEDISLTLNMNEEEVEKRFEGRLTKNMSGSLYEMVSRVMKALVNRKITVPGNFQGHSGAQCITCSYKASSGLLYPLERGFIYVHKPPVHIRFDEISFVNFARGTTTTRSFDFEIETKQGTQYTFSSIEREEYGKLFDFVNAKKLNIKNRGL

The experiment concerns the target His-tagged middle domain of SSRP1 (SSRP1-M, residues 196-430) (human) (UniProt Q08945). Kind of experiment: SEC; gel filtration of the purification (HiLoad 16/60 Superdex 200 or Superdex 75 pg), 20 mM Tris-HCl, 200 mM NaCl, pH 7.0; both purified.

These are yes or no findings as the source states them, for the method shown.

Turning to “His-tagged middle domain of SSRP1 (SSRP1-M, residues 196-430) (from UniProt Q08945 196-430) (domain or fragment)”, the binding result is given as “no binding”.
